About 6,200 (1.8%) of roughly 340,000 compounds were called active. The shares of active, inactive and inconclusive entries below differ from those in the screen. Calls follow the shape of the dose curve; as a rule, active = well fitted activation curve with a large enough effect; inconclusive = small, poorly fitted or top-dose-only effect; inactive = no such curve, though single readings can be large or run the other way. Where the call is inconclusive, the potency comes from a doubtful curve fit.
Assay: A quantitative high throughput screen for small molecules that induce DNA re-replication in SW480 colon adenocarcinoma cells. Also: nearly all actives have a fitted effect of over 55% in size.
Conditions: Hoechst DNA content imaging, 48 h; series mostly up to 46.1 µM
In short: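 250 cells/well; 23 nL cpd via pin tool; 48 hr, 37 C, 5% CO2; Hoechst 40 min; imager read of total nuclear intensity, ex 405/em 500-530 nm.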
Potency is read from the fitted curve at half-maximal effect.

SMILES	Potency
Cc1ccccc1C(=O)Nc1cc(S(=O)(=O)N2CCCCC2)ccc1N1CCN(C)CC1	inactive
Cc1cc(C)[n+]2[nH]c(N)c(N=Nc3ccccc3)c2n1	inactive
Cc1cccc2c1NC(=O)/C2=C\C(=O)c1cccs1	inconclusive: 18.4 µM [activator, single point]
COc1ccc(/C=N/NC(=S)Nc2cc(C(F)(F)F)ccc2Cl)cc1	inconclusive: 20.6 µM [activator, partial curve, poor fit]
CC(C)c1ccc(NC2CCCN(C(=O)CCN3CCOCC3)C2)cc1 (centres undefined)	inconclusive: 1.46 µM [activator, partial curve, poor fit]
CCOC(=O)C1CCCN(Cc2ccc(OCC)cc2)C1 (centres undefined)	inconclusive: 29.1 µM [activator, single point]
COc1ccc(CCC(=O)N2CCN(S(=O)(=O)c3ccc(OC(F)(F)F)cc3)CC2)cc1	inactive
N#CC1=C(N)Oc2n[nH]c(CSc3ccccc3)c2C12C(=O)Nc1ccccc12 (centres undefined)	inconclusive: 29.1 µM [activator, single point]
COc1ccc([N+](=O)[O-])cc1NCc1ccccc1C	inconclusive: 29.1 µM [activator, single point]
O=C(COc1ccc([N+](=O)[O-])cc1Cl)N1CCc2ccccc21	inactive
O=C(Cn1cnc([N+](=O)[O-])n1)N/N=C/c1ccc(O)cc1O	active: 11.6 µM
Cc1ccsc1/C=N/NC(=O)c1cc(-c2ccncc2)nc2ccccc12	active: 1.46 µM
CCOc1ccccc1Nc1nc2ccc(C)cc2n2cnnc12	inactive
CCCOC(=O)c1cccc(Nc2nc(-c3cccnc3)nc3ccccc23)c1	inconclusive: 23.1 µM [activator, single point]
COc1cc(OC)c(OC)cc1/C=C1\CC(C)C/C(=C\c2cc(OC)c(OC)cc2OC)C1=O (centres undefined)	inconclusive: 18.4 µM [activator, single point]
CCCn1c(SCC(=O)c2ccc3c(c2)OCCO3)nc2c1c(=O)n(C)c(=O)n2C	inconclusive: 29.1 µM [activator, partial curve, poor fit]
Cc1cnc(NC(=O)C2CC(=O)N(c3cccc(Cl)c3)C2)s1 (centres undefined)	inconclusive: 3.66 µM [activator, full curve, poor fit]
O=C(CN1CCN(c2ncc(C(F)(F)F)cc2Cl)CC1)NCCNc1ncc(C(F)(F)F)cc1Cl	inconclusive: 20.6 µM [activator, single point]
O=C(CN1CCCC1)Nc1ccc(Br)cc1	inconclusive: 6.51 µM [activator, partial curve, poor fit]
COc1ccc2nc3c(nc2c1)CCCC3	inactive
CCOc1cc(/C=C2\SC(=Nc3ccc(CC)cc3)NC2=O)ccc1OCC(=O)O	inconclusive: 23.1 µM [activator, partial curve, poor fit]
CCOC(=O)c1ccc(Oc2cn[nH]c2-c2ccc(OCC(=O)NN)cc2O)cc1	inconclusive: 6.51 µM [activator, single point]

SMILES	Potency
CNC(=O)c1cc2c(=O)n3cc(C)ccc3nc2n(C(C)C)c1=N	inconclusive: 1.84 µM [activator, full curve, poor fit]
Cc1ccc(S(=O)(=O)N(CC(=O)NN=C2CCN(C)CC2)c2ccc(C(C)C)cc2)cc1	inconclusive: 0.731 µM [activator, partial curve, poor fit]
CCN(Cc1nc(-c2ccc(C)cc2)no1)C(=O)c1ccco1	inconclusive: 4.11 µM [activator, partial curve, poor fit]
Cc1ccc(S(=O)(=O)c2nc(S(C)(=O)=O)sc2N2CCCCCC2)cc1	inactive
COc1cc(NCCCn2ccc(NC(=O)OCc3ccccc3)nc2=O)cc(OC)c1OC	inactive
CC(C)C[C@H]1CN=C(Nc2ccccc2)N1CCCC1CCCC1	inconclusive: 25.9 µM [activator, partial curve, poor fit]
CCCc1nc2oc(C(=O)c3ccccc3)c(N)c2c2c1COC(C)(C)C2	inconclusive: 10.3 µM [activator, partial curve]
COc1ccc(/C=C/C(=O)CCC(=O)O)cc1	inconclusive: 2.31 µM [activator, partial curve, poor fit]
COc1cc(OC)cc(N(C(=O)C2COc3ccccc3O2)C(C(=O)NC2CCCCC2)c2ccc(O)cc2)c1 (centres undefined)	inconclusive: 20.6 µM [activator, single point]
CCOC(=O)C1=NNC(C(=O)OCC)C1c1ccccc1 (centres undefined)	inactive
COc1cccc(C2C(C(N)=O)=C(C)Nc3nc(-c4ccccc4Cl)nn32)c1 (centres undefined)	inactive
CCOC(=O)C1=C(C)NC2=C(C(=O)CC(C)(C)C2)C1c1ccsc1 (centres undefined)	inconclusive: 13 µM [activator, single point]
CCC(=O)NC(c1ccc(OC)c(OC)c1)c1cc(Cl)c2cccnc2c1O (centres undefined)	inconclusive: 2.59 µM [activator, full curve]
O=C(Cc1n[nH]c(=O)c2ccccc12)OCC(=O)c1ccc(F)cc1	inactive
CN(C)C(=O)CN1CCN(C(=O)CCl)CC1	inactive
Cn1c2ccc(F)cc2c2ncn(CCCN(CCO)CCO)c(=O)c21	inactive
O=C(CN1CCN(Cc2ccccc2Cl)CC1)N/N=C/C=C\c1ccccc1[N+](=O)[O-]	inconclusive: 29.1 µM [activator, single point]
O=C(O)CCc1ccc(-c2cccs2)n1CCc1ccccc1	inconclusive: 0.731 µM [activator, full curve, poor fit]
Cc1ccc(-n2ncc(C(=O)NCC3CCN(C4CCCC4)C3)c2C2CCN(C(=O)OC(C)(C)C)CC2)cc1 (centres undefined)	inconclusive: 16.4 µM [activator, single point]
O=C(NNc1cccc(Cl)n1)c1ccccc1CC[N+](=O)[O-]	inconclusive: 20.6 µM [activator, single point]
COc1ccccc1N1CCN(C(=O)C2CC=CCC2C(=O)O)CC1 (centres undefined)	inactive
Cc1ccc(C(=O)NNC(=S)NCC2CCCO2)cc1[N+](=O)[O-] (centres undefined)	inactive

Reprinted at random: 2 compounds from above
SMILES	Potency
Cn1c2ccc(F)cc2c2ncn(CCCN(CCO)CCO)c(=O)c21	inactive
Cc1ccsc1/C=N/NC(=O)c1cc(-c2ccncc2)nc2ccccc12	active: 1.46 µM

— PubChem BioAssay AID624297 (National Center for Advancing Translational Sciences (NCATS), 2012)
